Experimental data from patent publication US7771761B2, “Cheese with calcium lactate crystal inhibitor” (Regents of The University of Minnesota, priority 2005, dated 2010).

Experiment: Solubility model Example 4: visual inspection for crystals on sand paper in calcium lactate solution
Assay type: physicochemical
Settings: no visible crystals and minimal reduction in calcium and lactate content after 14 days at 7° C.
Method: Demineralized water (60° C.) was then added to the flask to obtain a final weight of 100 g and the flask was stirred to dissolve the calcium lactate powder. Subsequently a piece of 1.5×3 cm sand paper was added to the flask to provide a nucleation site for calcium lactate crystal formation and the flask was sealed with a rubber stopper.
After preparation a sample of each solution was collected.
Subsequently all solutions were stored at 7° C. for 14 days. After 14 days the flasks were visually inspected for the presence of crystals on the sand paper and the solutions were filtered at 7° C. through filter paper (Whatman 4; Whatman International Ltd., Maidstone, England).

SMILES | qualification as CLC inhibitor in the model system
O=C([O-])[C@H](O)[C@@H](O)[C@H](O)[C@H](O)CO.[Na+] [Sodium gluconate, sodium gluconate] | qualify as CLC inhibitors
O=C(O)[C@H](O)[C@@H](O)[C@H](O[C@@H]1O[C@H](CO)[C@H](O)[C@H](O)[C@H]1O)[C@H](O)CO [Sodium lactobionate, lactobionic acid] | qualify as CLC inhibitors
O=C(O)CC(O)C(=O)O (stereo not drawn) [Sodium malate, malic acid disodium salt] | qualify as CLC inhibitors

Where a name gives a salt, the structure may show the parent alone. Some compounds share one wording; it may come from a single statement.
